Laboratory results: patent US20180320217A1, “METHODS FOR SAMPLING AND MEASURING ORAL LAVAGE PROTEINS” (The Procter & Gamble Company, priority 2017, published 2018)

B1: Brevican core protein (protein, UniProt Q96GW7 23-911, looked up)
Brevican core protein: DVLEGDSSEDRAFRVRIAGDAPLQGVLGGALTIPCHVHYLRPPPSRRAVLGSPRVKWTFLSRGREAEVLVARGVRVKVNEAYRFRVALPAYPASLTDVSLALSELRPNDSGIYRCEVQHGIDDSSDAVEVKVKGVVFLYREGSARYAFSFSGAQEACARIGAHIATPEQLYAAYLGGYEQCDAGWLSDQTVRYPIQTPREACYGDMDGFPGVRNYGVVDPDDLYDVYCYAEDLNGELFLGDPPEKLTLEEARAYCQERGAEIATTGQLYAAWDGGLDHCSPGWLADGSVRYPIVTPSQRCGGGLPGVKTLFLFPNQTGFPNKHSRFNVYCFRDSAQPSAIPEASNPASNPASDGLEAIVTVTETLEELQLPQEATESESRGAIYSIPIMEDGGGGSSTPEDPAEAPRTLLEFETQSMVPPTGFSEEEGKALEEEEKYEDEEEKEEEEEEEEVEDEALWAWPSELSSPGPEASLPTEPAAQEESLSQAPARAVLQPGASPLPDGESEASRPPRVHGPPTETLPTPRERNLASPSPSTLVEAREVGEATGGPELSGVPRGESEETGSSEGAPSLLPATRAPEGTRELEAPSEDNSGRTAPAGTSVQAQPVLPTDSASRGGVAVVPASGDCVPSPCHNGGTCLEEEEGVRCLCLPGYGGDLCDVGLRFCNPGWDAFQGACYKHFSTRRSWEEAETQCRMYGAHLASISTPEEQDFINNRYREYQWIGLNDRTIEGDFLWSDGVPLLYENWNPGQPDSYFLSGENCVVMVWHDQGQWSDVPCNYHLSYTCKMGLVSCGPPPELPLAQVFGRPRLRYEVDTVLRYRCREGLAQRNLPLIRCQENGRWEAPQISCVPRRPARALHPEEDPEGRQGRLLGRWKALLIPPSSPMPGP
B2: Cadherin-5 (protein, UniProt P33151 48-784, looked up)
Cadherin-5: DWIWNQMHIDEEKNTSLPHHVGKIKSSVSRKNAKYLLKGEYVGKVFRVDAETGDVFAIERLDRENISEYHLTAVIVDKDTGENLETPSSFTIKVHDVNDNWPVFTHRLFNASVPESSAVGTSVISVTAVDADDPTVGDHASVMYQILKGKEYFAIDNSGRIITITKSLDREKQARYEIVVEARDAQGLRGDSGTATVLVTLQDINDNFPFFTQTKYTFVVPEDTRVGTSVGSLFVEDPDEPQNRMTKYSILRGDYQDAFTIETNPAHNEGIIKPMKPLDYEYIQQYSFIVEATDPTIDLRYMSPPAGNRAQVIINITDVDEPPIFQQPFYHFQLKENQKKPLIGTVLAMDPDAARHSIGYSIRRTSDKGQFFRVTKKGDIYNEKELDREVYPWYNLTVEAKELDSTGTPTGKESIVQVHIEVLDENDNAPEFAKPYQPKVCENAVHGQLVLQISAIDKDITPRNVKFKFILNTENNFTLTDNHDNTANITVKYGQFDREHTKVHFLPVVISDNGMPSRTGTSTLTVAVCKCNEQGEFTFCEDMAAQVGVSIQAVVAILLCILTITVITLLIFLRRRLRKQARAHGKSVPEIHEQLVTYDEEGGGEMDTTSYDVSVLNSVRRGGAKPPRPALDARPSLYAQVQKPPRHAPGAHGGPGEMAAMIEVKKDEADHDGDGPPYDTLHIYGYEGSESIAESLSSLGTDSSDSDVDYDFLNDWGPRFKMLAELYGSDPREELLY

Test system: proteins in oral lavage
Assay: Abundance of proteins in human oral lavage (SomaLogic), TABLE 1
Type: in vivo
Settings: for Means (Original Scale) High bleeder BL / Means (Original Scale) High bleeder W4 / Means (Original Scale) Low bleeder BL: abundance in oral lavage; for Means (Original Scale) High bleeder BL: high bleeders (gingivitis); for Means (Original Scale) High bleeder BL / Means (Original Scale) Low bleeder BL: baseline; for Means (Original Scale) High bleeder W4 / Fold Change High bleeder W4 vs High bleeder BL: high bleeders; for Means (Original Scale) High bleeder W4: week 4 of investigative products; for Means (Original Scale) Low bleeder BL: low bleeders (healthy); for Fold Change High bleeder BL vs Low bleeder BL / Fold Change High bleeder W4 vs High bleeder BL: oral lavage; for Fold Change High bleeder BL vs Low bleeder BL: high bleeders vs low bleeders at baseline; for Fold Change High bleeder W4 vs High bleeder BL: week 4 of investigative products vs baseline

Molecule | Means (Original Scale) High bleeder BL | Means (Original Scale) High bleeder W4 | Means (Original Scale) Low bleeder BL | Fold Change High bleeder BL vs Low bleeder BL | Fold Change High bleeder W4 vs High bleeder BL
B1 | 3617 | 1786 | 364 | 9.85 | 0.51
B2 | 1720 | 807 | 252 | 5.83 | 0.53
